Results are given in words; binding and its absence hold for the method and conditions named. Binding seen in cells or lysates may run through a third protein. Some binding calls cover weakened binding; strength is not graded here.
Target: GST-tagged HPV16 E6 wild type (human papillomavirus type 16) (UniProt P03126)
Test: pull-down; purified GST fusion proteins on glutathione-conjugated agarose incubated with equal amounts of in vitro-translated HA-AurA, 1 h at room temperature; washed 3 times with PBS containing 0.1% Tween 20; bound AurA detected by Western blotting with an HA-specific antibody; bands quantified with ImageJ relative to GST-16E6 (n = 3); only the target purified

Chains of the proteins cited; added tags and fusions are not shown.
UniProt P03126: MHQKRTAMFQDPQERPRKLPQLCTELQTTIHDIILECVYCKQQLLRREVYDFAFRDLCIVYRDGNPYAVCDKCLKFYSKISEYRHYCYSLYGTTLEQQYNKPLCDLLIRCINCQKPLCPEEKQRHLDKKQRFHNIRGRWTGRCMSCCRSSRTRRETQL
UniProt O14965: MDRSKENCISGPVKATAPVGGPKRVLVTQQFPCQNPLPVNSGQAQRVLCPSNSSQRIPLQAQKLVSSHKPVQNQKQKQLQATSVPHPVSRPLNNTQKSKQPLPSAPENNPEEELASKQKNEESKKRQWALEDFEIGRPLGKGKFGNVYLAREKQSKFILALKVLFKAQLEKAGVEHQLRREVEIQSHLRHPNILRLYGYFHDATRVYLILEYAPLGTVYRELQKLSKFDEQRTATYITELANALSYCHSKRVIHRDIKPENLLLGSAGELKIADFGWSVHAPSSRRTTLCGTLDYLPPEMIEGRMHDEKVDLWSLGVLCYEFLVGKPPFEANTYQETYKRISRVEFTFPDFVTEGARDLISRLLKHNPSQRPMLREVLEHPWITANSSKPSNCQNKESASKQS

Aurora kinase A (HA-AurA, in vitro translated) (from UniProt O14965 1-403) (enzyme)
binding: binds

Reference: PMC9972942, “E6-Encoded by Cancer-Causing Human Papillomavirus Interacts with Aurora Kinase A To Promote HPV-Mediated Carcinogenesis” (Journal of Virology, 2023)
